Laboratory results published in the supplement of paper PMC11732987, “Enantioselective OTUD7B fragment discovery through chemoproteomics screening and high-throughput optimisation” (Communications Chemistry, 2025).
The other results are listed elsewhere or left out. The data scatter; read single values as rough.

Sequences of proteins named here, by UniProt entry; tags and fusion partners are left off. A change or cut given only in a name is not applied to a line headed by its entry. Residues count along the entry.
UniProt Q8IV63, 175-197: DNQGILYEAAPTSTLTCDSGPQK
UniProt Q8N1B4, 101-125: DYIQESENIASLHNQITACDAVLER
UniProt Q9C0J8: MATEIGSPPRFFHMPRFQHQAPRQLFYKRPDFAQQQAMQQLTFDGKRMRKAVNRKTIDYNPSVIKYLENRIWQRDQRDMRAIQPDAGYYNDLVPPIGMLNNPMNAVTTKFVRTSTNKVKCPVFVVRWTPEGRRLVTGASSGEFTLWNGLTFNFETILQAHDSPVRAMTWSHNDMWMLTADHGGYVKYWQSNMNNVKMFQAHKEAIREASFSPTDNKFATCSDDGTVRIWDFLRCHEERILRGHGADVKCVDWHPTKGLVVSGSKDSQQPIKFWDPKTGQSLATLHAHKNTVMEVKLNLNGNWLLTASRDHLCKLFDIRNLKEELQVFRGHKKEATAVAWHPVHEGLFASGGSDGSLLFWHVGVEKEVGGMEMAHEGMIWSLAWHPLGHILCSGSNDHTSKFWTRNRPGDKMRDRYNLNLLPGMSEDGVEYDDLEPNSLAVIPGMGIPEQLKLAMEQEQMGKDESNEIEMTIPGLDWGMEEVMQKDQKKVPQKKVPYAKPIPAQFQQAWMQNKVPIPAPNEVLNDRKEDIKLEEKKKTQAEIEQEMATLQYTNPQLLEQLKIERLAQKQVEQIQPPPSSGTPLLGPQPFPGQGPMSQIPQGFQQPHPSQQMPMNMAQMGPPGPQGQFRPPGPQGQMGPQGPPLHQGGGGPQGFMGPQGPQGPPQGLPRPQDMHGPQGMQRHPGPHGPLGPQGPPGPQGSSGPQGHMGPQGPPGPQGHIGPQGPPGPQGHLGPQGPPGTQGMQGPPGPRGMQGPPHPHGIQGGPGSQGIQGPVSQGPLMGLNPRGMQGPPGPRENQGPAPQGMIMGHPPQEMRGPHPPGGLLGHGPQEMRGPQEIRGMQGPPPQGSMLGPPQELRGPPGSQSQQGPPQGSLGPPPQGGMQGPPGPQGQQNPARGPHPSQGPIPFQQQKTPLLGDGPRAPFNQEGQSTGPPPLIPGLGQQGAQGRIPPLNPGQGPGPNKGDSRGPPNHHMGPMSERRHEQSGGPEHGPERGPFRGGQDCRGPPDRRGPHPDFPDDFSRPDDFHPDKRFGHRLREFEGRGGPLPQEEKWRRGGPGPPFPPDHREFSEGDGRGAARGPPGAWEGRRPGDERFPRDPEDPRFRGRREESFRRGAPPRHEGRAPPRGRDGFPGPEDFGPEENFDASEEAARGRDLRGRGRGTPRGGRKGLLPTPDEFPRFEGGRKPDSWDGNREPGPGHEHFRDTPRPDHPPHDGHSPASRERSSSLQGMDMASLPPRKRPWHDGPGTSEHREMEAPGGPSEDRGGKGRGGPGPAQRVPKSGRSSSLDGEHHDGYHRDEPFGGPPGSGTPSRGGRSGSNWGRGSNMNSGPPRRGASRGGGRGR
UniProt Q7Z5K2: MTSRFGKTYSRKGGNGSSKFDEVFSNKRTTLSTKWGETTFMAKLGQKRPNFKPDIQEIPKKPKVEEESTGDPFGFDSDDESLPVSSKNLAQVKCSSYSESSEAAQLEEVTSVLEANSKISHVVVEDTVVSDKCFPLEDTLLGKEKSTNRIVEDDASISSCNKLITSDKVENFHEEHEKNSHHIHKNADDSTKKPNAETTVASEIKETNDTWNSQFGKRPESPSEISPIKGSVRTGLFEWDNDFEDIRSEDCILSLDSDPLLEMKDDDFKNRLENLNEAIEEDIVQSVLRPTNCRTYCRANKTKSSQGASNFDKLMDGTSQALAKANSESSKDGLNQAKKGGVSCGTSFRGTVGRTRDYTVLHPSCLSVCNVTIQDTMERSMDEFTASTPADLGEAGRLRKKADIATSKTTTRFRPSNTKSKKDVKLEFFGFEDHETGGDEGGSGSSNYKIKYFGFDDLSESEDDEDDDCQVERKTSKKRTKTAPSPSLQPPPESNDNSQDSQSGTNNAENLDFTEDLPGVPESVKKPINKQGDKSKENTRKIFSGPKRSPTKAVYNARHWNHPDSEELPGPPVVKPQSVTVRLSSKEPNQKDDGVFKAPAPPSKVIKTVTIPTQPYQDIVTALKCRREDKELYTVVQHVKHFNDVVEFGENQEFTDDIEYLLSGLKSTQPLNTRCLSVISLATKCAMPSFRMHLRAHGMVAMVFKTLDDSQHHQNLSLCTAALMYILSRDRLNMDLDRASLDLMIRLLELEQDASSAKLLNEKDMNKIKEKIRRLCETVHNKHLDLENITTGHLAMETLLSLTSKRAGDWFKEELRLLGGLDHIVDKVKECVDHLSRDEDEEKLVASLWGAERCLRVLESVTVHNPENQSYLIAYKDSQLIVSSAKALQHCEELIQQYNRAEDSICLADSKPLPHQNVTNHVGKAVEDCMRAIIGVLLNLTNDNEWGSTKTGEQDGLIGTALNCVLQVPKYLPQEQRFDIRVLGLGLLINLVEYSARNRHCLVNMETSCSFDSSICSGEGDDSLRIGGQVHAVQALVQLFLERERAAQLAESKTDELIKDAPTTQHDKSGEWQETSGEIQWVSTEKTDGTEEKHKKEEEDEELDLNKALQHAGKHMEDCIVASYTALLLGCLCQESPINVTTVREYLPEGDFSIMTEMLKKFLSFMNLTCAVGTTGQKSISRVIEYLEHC
UniProt Q969T9: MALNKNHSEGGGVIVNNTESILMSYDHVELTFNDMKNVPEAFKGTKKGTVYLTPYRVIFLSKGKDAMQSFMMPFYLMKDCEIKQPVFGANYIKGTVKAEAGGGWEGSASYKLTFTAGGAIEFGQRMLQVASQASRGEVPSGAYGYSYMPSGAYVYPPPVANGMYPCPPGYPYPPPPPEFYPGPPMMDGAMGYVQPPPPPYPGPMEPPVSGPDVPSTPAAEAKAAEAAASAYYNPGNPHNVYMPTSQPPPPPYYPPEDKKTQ
UniProt Q8N9V3: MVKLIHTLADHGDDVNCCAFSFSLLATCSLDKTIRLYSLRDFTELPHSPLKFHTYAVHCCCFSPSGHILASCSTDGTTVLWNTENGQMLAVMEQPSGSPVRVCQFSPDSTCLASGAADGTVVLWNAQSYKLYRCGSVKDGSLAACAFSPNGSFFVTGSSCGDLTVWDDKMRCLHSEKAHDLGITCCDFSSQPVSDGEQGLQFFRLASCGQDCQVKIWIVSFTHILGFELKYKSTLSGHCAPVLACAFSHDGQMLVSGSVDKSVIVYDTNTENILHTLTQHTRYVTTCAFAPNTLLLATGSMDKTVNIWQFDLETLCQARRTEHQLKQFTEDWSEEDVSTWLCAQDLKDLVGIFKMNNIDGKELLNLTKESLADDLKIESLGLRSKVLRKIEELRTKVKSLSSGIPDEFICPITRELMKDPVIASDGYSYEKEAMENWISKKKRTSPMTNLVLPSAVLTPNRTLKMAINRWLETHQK
UniProt Q9H6S0: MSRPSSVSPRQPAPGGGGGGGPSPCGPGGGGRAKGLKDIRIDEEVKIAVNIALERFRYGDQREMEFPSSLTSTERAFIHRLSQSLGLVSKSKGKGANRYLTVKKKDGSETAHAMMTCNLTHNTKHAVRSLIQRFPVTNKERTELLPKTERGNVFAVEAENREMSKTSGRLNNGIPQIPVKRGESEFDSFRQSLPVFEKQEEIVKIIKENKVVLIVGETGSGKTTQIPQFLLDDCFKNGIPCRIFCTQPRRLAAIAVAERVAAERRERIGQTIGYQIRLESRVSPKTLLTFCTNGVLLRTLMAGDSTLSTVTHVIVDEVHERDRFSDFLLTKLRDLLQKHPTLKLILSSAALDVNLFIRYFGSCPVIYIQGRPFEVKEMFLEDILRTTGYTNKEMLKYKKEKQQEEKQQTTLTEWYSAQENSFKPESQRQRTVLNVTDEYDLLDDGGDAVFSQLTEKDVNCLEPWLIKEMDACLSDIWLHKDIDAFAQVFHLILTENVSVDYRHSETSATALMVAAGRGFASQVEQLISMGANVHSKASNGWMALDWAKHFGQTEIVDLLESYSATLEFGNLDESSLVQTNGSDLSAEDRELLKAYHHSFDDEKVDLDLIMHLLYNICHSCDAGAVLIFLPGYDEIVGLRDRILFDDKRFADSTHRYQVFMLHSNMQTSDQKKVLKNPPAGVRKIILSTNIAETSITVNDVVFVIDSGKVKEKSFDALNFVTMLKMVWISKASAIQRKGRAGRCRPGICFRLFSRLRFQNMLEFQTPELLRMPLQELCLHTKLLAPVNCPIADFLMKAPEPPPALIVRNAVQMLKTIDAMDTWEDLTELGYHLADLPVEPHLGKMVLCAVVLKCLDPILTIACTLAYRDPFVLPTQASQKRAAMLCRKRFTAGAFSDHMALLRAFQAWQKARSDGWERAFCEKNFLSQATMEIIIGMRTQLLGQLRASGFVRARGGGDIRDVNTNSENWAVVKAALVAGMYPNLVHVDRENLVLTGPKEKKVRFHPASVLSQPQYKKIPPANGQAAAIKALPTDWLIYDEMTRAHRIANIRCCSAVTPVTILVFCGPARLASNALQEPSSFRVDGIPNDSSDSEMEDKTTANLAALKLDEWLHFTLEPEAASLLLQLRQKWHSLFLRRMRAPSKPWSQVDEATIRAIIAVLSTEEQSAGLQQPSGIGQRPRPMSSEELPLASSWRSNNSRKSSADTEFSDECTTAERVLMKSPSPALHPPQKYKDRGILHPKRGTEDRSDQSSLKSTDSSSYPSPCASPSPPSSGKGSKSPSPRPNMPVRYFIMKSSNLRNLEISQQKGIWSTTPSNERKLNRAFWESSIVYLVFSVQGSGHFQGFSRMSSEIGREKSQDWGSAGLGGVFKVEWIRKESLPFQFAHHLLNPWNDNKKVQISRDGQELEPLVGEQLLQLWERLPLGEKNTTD
UniProt Q9HAV4, 1113-1132: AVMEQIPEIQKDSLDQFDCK
UniProt Q9NRH1: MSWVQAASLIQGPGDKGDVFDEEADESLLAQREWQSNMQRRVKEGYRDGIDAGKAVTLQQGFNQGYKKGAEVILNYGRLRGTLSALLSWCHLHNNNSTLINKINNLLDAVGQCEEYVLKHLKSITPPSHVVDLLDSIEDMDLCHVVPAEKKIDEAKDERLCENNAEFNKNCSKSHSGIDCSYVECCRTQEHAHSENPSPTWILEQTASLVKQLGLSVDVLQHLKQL
UniProt O14980, whole entry, looked up: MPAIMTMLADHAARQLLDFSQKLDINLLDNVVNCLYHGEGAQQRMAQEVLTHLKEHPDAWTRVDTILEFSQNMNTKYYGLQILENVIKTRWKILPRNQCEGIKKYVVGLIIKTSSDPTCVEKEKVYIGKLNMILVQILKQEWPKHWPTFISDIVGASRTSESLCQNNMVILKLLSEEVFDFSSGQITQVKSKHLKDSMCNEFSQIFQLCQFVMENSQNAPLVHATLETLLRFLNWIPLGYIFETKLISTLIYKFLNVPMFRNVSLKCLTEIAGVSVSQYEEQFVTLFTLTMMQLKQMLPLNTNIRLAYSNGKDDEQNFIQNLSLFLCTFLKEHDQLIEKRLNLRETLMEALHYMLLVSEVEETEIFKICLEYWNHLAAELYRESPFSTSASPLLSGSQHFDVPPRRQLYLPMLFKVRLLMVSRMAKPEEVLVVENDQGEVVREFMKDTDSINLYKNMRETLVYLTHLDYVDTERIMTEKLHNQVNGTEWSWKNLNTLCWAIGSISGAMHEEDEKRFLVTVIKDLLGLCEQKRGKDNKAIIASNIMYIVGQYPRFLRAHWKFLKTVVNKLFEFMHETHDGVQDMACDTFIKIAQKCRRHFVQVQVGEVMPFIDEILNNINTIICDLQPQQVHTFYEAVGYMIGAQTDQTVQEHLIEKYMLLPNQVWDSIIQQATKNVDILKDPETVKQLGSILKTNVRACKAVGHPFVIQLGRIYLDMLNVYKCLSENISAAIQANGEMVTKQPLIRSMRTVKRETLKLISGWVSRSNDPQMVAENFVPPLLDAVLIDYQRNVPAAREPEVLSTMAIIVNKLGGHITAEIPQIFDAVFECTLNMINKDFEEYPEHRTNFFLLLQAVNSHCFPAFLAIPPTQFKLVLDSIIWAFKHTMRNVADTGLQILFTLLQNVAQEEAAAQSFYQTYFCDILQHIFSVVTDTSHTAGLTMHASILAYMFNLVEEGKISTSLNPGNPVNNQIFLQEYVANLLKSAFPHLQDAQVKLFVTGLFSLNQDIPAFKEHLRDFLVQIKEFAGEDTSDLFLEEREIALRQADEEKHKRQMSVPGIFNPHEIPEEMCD
UniProt Q9Y3C0: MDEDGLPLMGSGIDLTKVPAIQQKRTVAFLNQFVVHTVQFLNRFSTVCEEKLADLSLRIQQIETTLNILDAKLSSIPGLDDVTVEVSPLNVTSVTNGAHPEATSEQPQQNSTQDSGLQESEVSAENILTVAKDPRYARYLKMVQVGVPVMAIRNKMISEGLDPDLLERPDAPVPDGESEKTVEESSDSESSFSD

How the values were obtained:
[1] = compound: ClCC(=O)N[C@H]1CCCc2ccccc12; assay: log2 mean competition ratio of IA-DTB cysteine labelling (DMSO/compound) (log2 ratio); higher = stronger cysteine engagement by compound; settings: treatment time: 4 h, cell line lysate: HEK293T
Experimental: (§1)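 IA-DTB competitive cysteine chemoproteomics in HEK293T RIPA lysate. Lysates were treated with compound 29 or 30 at 50 or 200 µM for 4 h, then IA-DTB (500 µM, 1 h), trypsin-digested, NeutrAvidin-enriched and analysed by diaPASEF. Competition ratio = intensity DMSO / intensity compound (n=4 treated, n=64 DMSO); binding: mean log2 CR ≥ 1 and p ≤ 0.05 plus QC filters. Target is the cysteine site.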

[2] = compound: ClCC(=O)N[C@@H]1CCCc2ccccc12; assay: as above; settings: treatment time: 4 h, cell line lysate: HEK293T
Experimental: as §1

Row | Target | log2 mean competition ratio ([1]; 50 µM) | log2 mean competition ratio ([1]; 200 µM) | log2 mean competition ratio ([2]; 50 µM) | log2 mean competition ratio ([2]; 200 µM)
1 | VPS53 C311 (UniProt Q5VIR6) | 0.664 | 0.583 |  | 
2 | VRK3 C191 (UniProt Q8IV63) | -0.117 | 0.233 |  | 
3 | WDR6 C653 (UniProt Q9NNW5) | 0.317 | -0.466 |  | 
4 | VPS52 C119 (UniProt Q8N1B4) | -0.173 | -0.187 |  | 
5 | WDR3 C625 (UniProt Q9UNX4) | -0.126 | 0.132 |  | 
6 | ZBTB44 C167 (UniProt Q8NCP5) | 0.0753 | 0.0642 | -0.164 | -0.462
7 | VPS51 C226 (UniProt Q9UID3) | -0.133 | 0.0473 | -0.0112 | 0.0717
8 | WDR33 C220 (UniProt Q9C0J8) | -0.185 | -0.00463 |  | -0.0935
9 | WAPL C160 (UniProt Q7Z5K2) | 0.00869 | 0.253 |  | 
10 | WDR75 C490 (UniProt Q8IWA0) | -0.157 | -0.054 |  | 
11 | WBP2 C80 (UniProt Q969T9) | 0.214 | 0.11 |  | 
12 | WDSUB1 C410 (UniProt Q8N9V3) | -0.0637 | 0.0397 |  | 
13 | VPS35L C214 (UniProt Q7Z3J2) | -0.219 | -0.16 | -0.182 | -0.273
14 | YTHDC2 C1211 (UniProt Q9H6S0) | -0.259 | 0.381 |  | 
15 | XPO5 C1131 (UniProt Q9HAV4) | 0.51 | 0.226 | 0.11 | 0.165
16 | YAE1 C161 (UniProt Q9NRH1) | -0.303 | 0.296 |  | 
17 | ZC3H14 C261 (UniProt Q6PJT7) | 0.858 | -0.066 |  | 0.121
18 | WDR62 C826 (UniProt O43379) | 0.477 | 0.263 |  | 
19 | XPO1 C528 (UniProt O14980) | -0.0186 | -0.218 | -0.0407 | -0.193
20 | WASHC3 C48 (UniProt Q9Y3C0) | 0.0338 | -0.155 |  | 

Already shown: an excerpt of the list.
Row | Target | log2 mean competition ratio ([1]; 50 µM) | log2 mean competition ratio ([1]; 200 µM) | log2 mean competition ratio ([2]; 50 µM) | log2 mean competition ratio ([2]; 200 µM)
9 | WAPL C160 (UniProt Q7Z5K2) | 0.00869 | 0.253 |  | 
10 | WDR75 C490 (UniProt Q8IWA0) | -0.157 | -0.054 |  | 
